In PMC10989989, “The archaeal KEOPS complex possesses a functional Gon7 homolog and has an essential function independent of the cellular t^6A modification level” (mLife, 2023):

Legend:
Assay in all cases: EMSA
[1] = system: TkoCgi121 (Thermococcus kodakarensis); details: 10 nM DNA, up to 20 uM protein, 50 mM Tris-HCl pH 8.0, 100 uM ATP, 37 C 30 min (45 min for the 45 nt ssDNA), 10 nM FAM probe (1 nM in Fig 6B), 8% native PAGE in 0.5x TBE at 4 C, recombinant protein, protein details: 6xHis, label: 5'-FAM
[2] = system: MBP-His-SisCgi121 (Saccharolobus islandicus REY15A); details: binding only at 20 uM, likely nonspecific, 50 mM Tris-HCl pH 8.0, 100 uM ATP, 37 C 30 min (45 min for the 45 nt ssDNA), 10 nM FAM probe (1 nM in Fig 6B), 8% native PAGE in 0.5x TBE at 4 C, recombinant protein, protein details: MBP, 6xHis, label: 5'-FAM
SisSSB = details: 5 uM, positive control; 50 mM Tris-HCl pH 8.0, 100 uM ATP, 37 C 30 min (45 min for the 45 nt ssDNA); 10 nM FAM probe (1 nM in Fig 6B); 8% native PAGE in 0.5x TBE at 4 C; recombinant protein; label: 5'-FAM; single-stranded DNA

## CAGTATGCTGCGTGAGGAATGATCCCATGACGTAACCACAGTGCC (double strand) [FAM-dsDNA 45 bp with two CCA motifs]
[1]
  binding result: no binding
[2]
  binding result: binds more weakly

## CAGTATGCTGCGTGAGGAATGATCCCATGACGTAACCACAGTGCC [FAM-ssDNA 45 nt with two CCA motifs]
SisSSB
  binding result: binds
[1]; single-stranded DNA
  binding result: no binding
[2]; single-stranded DNA
  binding result: binds more weakly

For at least one entry, the source does not settle the construct or the ends of the probe. For some assays here: Negatives hold for the conditions tested. For some assays here: A weaker result is weaker than the reference pair of the same experiment. For some assays here: At least one verdict was read from the data and is not stated in words by the source.
